Our source for the binding signal values is PMC7819943, “Rice protein-binding microarrays: a tool to detect cis-acting elements near promoter regions in rice”.

The list shows a part of the results.

In the test the target is T1, OsSMF1 (Oryza sativa, UniProt Q6ZLB0 1-436).
T1 sequence: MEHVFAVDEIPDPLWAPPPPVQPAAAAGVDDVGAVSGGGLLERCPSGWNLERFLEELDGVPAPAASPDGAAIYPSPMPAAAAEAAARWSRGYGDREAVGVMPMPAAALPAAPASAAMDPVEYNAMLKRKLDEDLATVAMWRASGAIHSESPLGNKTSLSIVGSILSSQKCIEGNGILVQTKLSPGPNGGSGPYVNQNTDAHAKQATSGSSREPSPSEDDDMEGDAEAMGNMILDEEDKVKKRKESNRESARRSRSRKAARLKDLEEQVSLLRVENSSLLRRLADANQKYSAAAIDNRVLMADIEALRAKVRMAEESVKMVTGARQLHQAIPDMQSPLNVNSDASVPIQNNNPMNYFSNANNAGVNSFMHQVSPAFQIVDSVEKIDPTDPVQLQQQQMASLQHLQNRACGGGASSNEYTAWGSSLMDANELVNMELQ
Put plainly: protein-binding microarray (RPBM); PBS, 2% BSA, 51.3 ng/ul salmon testes DNA, 50 uM zinc acetate, 200 nM TF, 25 C, 1 h; high values mean tight binding. The settings on record: protein: recombinant; tags: N-terminal polyhistidine and DsRed monomer fusion (pET32a); chain copies: 2; label: CyDye5-dUTP incorporated in the synthesized complementary strand; 3' TTTTT single-stranded linker to array surface; dsDNA, one strand shown. The method, boiled down: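 Binding signal is defined as the fluorescence intensity of each feature in arbitrary units, read on an Axon 4000B scanner. Transcription factors with N-terminal polyhistidine and DsRed fusions came from E. coli BL21-CodonPlus and were purified on Ni–NTA. They were incubated at 200 nM for 1 h at 25 °C on a custom Agilent array that had been made double-stranded with Cy5-dUTP, with 50 µM zinc acetate present, and the array was washed.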
As to “CAGCGTAATTCGCCACCTGTTGCTGTCGCCGTCCTCCTCCCGGAGTCACCTAGTGCAG”, the binding signal is 3340 fluorescence intensity (a.u.). With “TTTCGTTGTCCCTCGTCATTGCTAGACCCAACCGCCGCCACGGAGTCACCTAGTGCAG”, the binding signal was 4460 fluorescence intensity (a.u.).

As for “TAAGCTACCGAAAACATGCGTGTGTTGCAATTGTCTCGGTCGGAGTCACCTAGTGCAG”, the binding signal is 4920 fluorescence intensity (a.u.).

Take “CGTGCCTCCACCCCGCCGCCCGTTGACGGCCGCCCAGGTGCGGAGTCACCTAGTGCAG”: the binding signal is 22400 fluorescence intensity (a.u.). As for “AGATGAATGAATCAGTAGTCATGTTGAGTGGAGATGACTGCGGAGTCACCTAGTGCAG”, the binding signal was 3960 fluorescence intensity (a.u.). For the sequence “TTCTCCCGTCGGATCCCGCGATCGTCCACGCCAGGGTTTACGGAGTCACCTAGTGCAG”, the binding signal was 3690 fluorescence intensity (a.u.).

For the sequence “TCACCGCGTACGTCACATTTACAGCTTTTGGTCGTCTATACGGAGTCACCTAGTGCAG”, the binding signal was 6150 fluorescence intensity (a.u.). In the case of “TCACCCGGAGAAATTCTCGAATAAACCCCTCACCACGGCGCGGAGTCACCTAGTGCAG”, the binding signal was 4270 fluorescence intensity (a.u.). For “TGTACAATTGTATTAGCAATAAAATAAAAGGTAGATAAAGCGGAGTCACCTAGTGCAG”, the binding signal was 7950 fluorescence intensity (a.u.). For the sequence “AGCGGACGCGCGGTATGGTCGATGGATGATGACACACGGTCGGAGTCACCTAGTGCAG”, the binding signal was 5210 fluorescence intensity (a.u.). Turning to “GTCGGCTACGTGTTCGACAACGTGACGTACCCGACAGAGCCGGAGTCACCTAGTGCAG”, the binding signal is 3640 fluorescence intensity (a.u.).

As for “CAAATTTGGATTCGTTTTGTTCGTTTCCAGCTCACCCTGTCGGAGTCACCTAGTGCAG”, the binding signal was 5320 fluorescence intensity (a.u.).

For the sequence “TTAGAATTTCACACGTGGGCCTATCTAAACATTTTCATGGCGGAGTCACCTAGTGCAG”, the binding signal is 7560 fluorescence intensity (a.u.).

Turning to “ATGCATTCCTCATGCATTCCTCTTACTTGTCCAAATAAAACGGAGTCACCTAGTGCAG”, the binding signal is 3400 fluorescence intensity (a.u.). Consider “CTCTCAGCTCACGTGACGTCAACCCCGCCAAAACGCGTTACGGAGTCACCTAGTGCAG”, for which the binding signal was 3970 fluorescence intensity (a.u.).

With “TCAATCAATCAATTAATTAGTAATTCAAAGTACTAAACACCGGAGTCACCTAGTGCAG”, the binding signal was 5120 fluorescence intensity (a.u.).

“TGGATAATGGTGAGTTGGAAAGGATTTCATCCTCTACCCTCGGAGTCACCTAGTGCAG”: the binding signal is 3640 fluorescence intensity (a.u.). The value for “TCGCGCTGTCACCTAACATCAGGCAAGGGGCTCGTCACGTCGGAGTCACCTAGTGCAG” was 3180 fluorescence intensity (a.u.). In the case of “CCCCACCTGTCAGCCACGTCGTCGCTTGCGCCCACCTCCCCGGAGTCACCTAGTGCAG”, the binding signal is 15900 fluorescence intensity (a.u.). On to “ATCTTGATATCTGCAACATAAAATGTAACATCAGATTTAACGGAGTCACCTAGTGCAG”, for which the binding signal was 39500 fluorescence intensity (a.u.). The value for “CCAACTCCTACTTCGTTGCGTTCGTTCTAAACCCGAGCCCCGGAGTCACCTAGTGCAG” was 28200 fluorescence intensity (a.u.); that for “TTGCTGCTGGCCATTCATACATACAGCCACGACTGCAAATCGGAGTCACCTAGTGCAG” was 3410 fluorescence intensity (a.u.). “TATACTTCAAAGTAATTTTGGCACACGAACTAAACACAGCCGGAGTCACCTAGTGCAG”: the binding signal is 3510 fluorescence intensity (a.u.). Take “GGCATTTAGAATAATACGTCATACGTTGGTTAAGCTTTTGCGGAGTCACCTAGTGCAG”: the binding signal was 6620 fluorescence intensity (a.u.). The value for “CGTGTCCCCAAGAAACGAGCCACGTGGCGCGCTACCGCACCGGAGTCACCTAGTGCAG” was 28100 fluorescence intensity (a.u.). As for “GTCTATCCTTTTCACGCACAATAATTTGTTATAGTTTAGACGGAGTCACCTAGTGCAG”, the binding signal was 24700 fluorescence intensity (a.u.). “GTAGATATGGGATATCCATAATCTCCACACGACCCAACCACGGAGTCACCTAGTGCAG”: the binding signal is 3210 fluorescence intensity (a.u.). “CTTCTAGTTTCCTCTTCCTCTCGCATCCTAGCGGCAGCGGCGGAGTCACCTAGTGCAG”: the binding signal is 29000 fluorescence intensity (a.u.). In the case of “CCGCTCGTCGATTAGCCGGCCACGCCTCCCGCTCGTGAAGCGGAGTCACCTAGTGCAG”, the binding signal is 3680 fluorescence intensity (a.u.). In the case of “CACAAAATGTCTTTGATACCATGGATGACTGTGATATGATCGGAGTCACCTAGTGCAG”, the binding signal was 4000 fluorescence intensity (a.u.).

With “CAATTCGTGTCACTGACACATTGGGCCCCATACCTCAACGCGGAGTCACCTAGTGCAG”, the binding signal is 6580 fluorescence intensity (a.u.). As to “TCATCGCACGATACCGCGAGCCAGGCATGCAGTCAGCTAGCGGAGTCACCTAGTGCAG”, the binding signal was 3240 fluorescence intensity (a.u.).

As to “AGTAGAGCCAGTATAATGGGATTGTATCACGTCAGCAAAACGGAGTCACCTAGTGCAG”, the binding signal was 5400 fluorescence intensity (a.u.). Turning to “TAGGATGACGTCCAATTCTTAATGTTCCGTGGGATGACCCCGGAGTCACCTAGTGCAG”, the binding signal is 3690 fluorescence intensity (a.u.). Take “GATACCGGCCACGATGTCATTTTCACGTCATTCTCGTGCACGGAGTCACCTAGTGCAG”: the binding signal is 7100 fluorescence intensity (a.u.).

Regarding “TATAATATATATAATATCAGATGTGACATGCCAACGCCGCCGGAGTCACCTAGTGCAG”, the binding signal was 4570 fluorescence intensity (a.u.). On to “ATCCGTCCTCCATTCTCAGGCCAGTTCTTGCAAGACTCTTCGGAGTCACCTAGTGCAG”, for which the binding signal is 8840 fluorescence intensity (a.u.). Consider “GCTCGCTCGCTCGCTGACGTGTACGCTTCGCGGCGGAGGCCGGAGTCACCTAGTGCAG”, for which the binding signal was 15000 fluorescence intensity (a.u.). The value for “CATATGTAACTTTTAACATATAAGGGCCCTCTTTAGATCCCGGAGTCACCTAGTGCAG” was 6680 fluorescence intensity (a.u.); that for “TAAAGCCATGACCTGTTCATACTTCATACACATCAACGCGCGGAGTCACCTAGTGCAG” was 3290 fluorescence intensity (a.u.); that for “CTCGTGCATCAGAAAATGGCGCACCGCCAGGCCCACCCAGCGGAGTCACCTAGTGCAG” was 3320 fluorescence intensity (a.u.). In the case of “GAATCGCCCCTCCGCGGCACGAGTCCACGACGGCAAGAAACGGAGTCACCTAGTGCAG”, the binding signal was 31700 fluorescence intensity (a.u.).
